Reference: patent US20090274739A1, “METHODS AND COMPOSITIONS FOR TREATING NEOINTIMAL HYPERPLASIA” (THE TRUSTEES OF COLUMBIA UNIVERSITY IN THE CITY OF NEW YORK, priority 2006, published 2009)
Entries after “also recorded” stand apart in the source; their conditions may differ. At least one compound was matched to its structure with a doubt left.

Experiments:
[1] = system: primary murine aortic vascular smooth muscle cells (VSMC); assay: VSMC proliferation assay (Coulter counter / MTS-based); assay type: cell-based, mouse; conditions: for insulin-stimulated VSMC proliferation: insulin 10 or 100 nmol/L
Method: The methods used in the above experiments were as follows: Cell Culture and VSMC Proliferation Assays. Primary VSMC were isolated from aortic explants of wildtype, ob/ob, or db/db mice in the method of Roque et al. 30. VSMC were routinely cultured in Dulbecco's Modified Eagle's Medium (DMEM) containing either 4500 or 1250 mg/L glucose supplemented with 20% FBS at 37° C. in a 5% CO2 incubator. […] Cells were plated at 200,000 cells/ well of a 6 well dish and subsequently serum starved for 72 hr in DMEM media supplemented with 0.1 % FBS. Leptin dissolved in PBS was added directly to serum-free media at concentrations of 1, 10, or 100 ng/ml with […] LY294002 or U0126, and cells were grown for another 72 hr before harvesting. VSMC proliferation was measured by counting samples using a Coulter counter or using the Cell Titre 96 Aqueous One Solution Cell Proliferation Assay kit (Promega). Cell viability was assessed by Trypan Blue staining.
Proliferation of VSMCs: VSMC proliferation was measured by counting triplicate samples using a Coulter counter or using the CellTitier 96 Aqueous One Solution Cell Proliferation Assay (Promega, Madison, Wis.) kit per manufacturer's instructions. Cell viability was assessed via staining with Trypan Blue.
Murine VSMCs (2×10^4 cells/well) were incubated in a 6-well tissue culture plate for 72 hours in DMEM containing 0.1% FBS with or without insulin (10 or 100 nmol/L) and with 0, 1, 10, or 100 nmol/L rapamycin. Triplicate samples were counted using a Coulter counter and were normalized as percentage of the control group. Cell viability was checked via Trypan blue staining.
Murine VSMCs, seeded 2×10^4 cells/well in a 6-well plate, were starved for 72 hrs in DMEM with 0.1% FBS. Rapamycin, leptin, or insulin in different concentrations indicated in the figure were incubated with VSMCs in DMEM with 0.1% of FBS for 72 hrs. Triplicate samples were counted via a Coulter counter. Cell viability was checked via Trypan blue staining. […] In panel C, VSMCs were exposed to U0126, a specific MEK1/2 inhibitor, or LY294002, a specific PI3K inhibitor.
(§1) Primary VSMC were isolated from aortic explants of WT, ob/ob, or db/db mice (46). VSMC proliferation was determined using the Cell Titre Aqueous One Solution Proliferation Assay (Promega, Madison, Wis.). Migration to PDGF-BB was assessed in a modified Boyden chamber assay (47).

murine VSMC migration = assay: VSMC migration, modified Boyden chamber; assay type: cell-based, mouse
Method: Migration of VSMCs: Migration was measured using a modified Boyden chamber as previously described (Grinspoon S, et al., J Clin Endocrinol Metab, 1996, 81(11):3861-3). The lower chambers contained PDGF (10 ng/mL), insulin (200 nmol/L), or 0.2% BSA (negative control) in DMEM. 2×10^5 cells were loaded into the top chamber. After 6 h, non-migrating cells were scraped from the upper surface of the filter, and the lower surface of the filter was stained with HEMA 3 Stain Set (Fisher Diagnostics, Middletown, Va.). The number of migrated VSMCs was determined by counting 4 fields at 200× magnification, of constant area per well. Values are expressed as the percentage of cells migrating in response to a chemo-attractant after subtracting the negative control. Experiments were performed thrice in triplicate wells.
FIG. 5 is a graph that depicts inhibition of migration of VSMCs toward insulin by rapamycin. Effects of acute and 48 h exposure of VSMCs to rapamycin (RPM, 100 nmol/L) on migration toward PDGF (10 ng/mL) and Insulin (200 nmol/L) in a modified Boyden chamber. # indicates value is significant compared to control group, P<0.01.
as §1

[2] = system: murine femoral artery wire injury model (neointimal hyperplasia); assay: Femoral artery wire injury model, morphometry of neointimal formation; assay type: in vivo, mouse; conditions: for inhibition of leptin-induced neointimal formation: leptin 0.4 mg/kg/d, 14 days
Description: Animal Models and Drug Treatments. Wild type C57BL/6J background mice and mice deficient for leptin (C57BL/6J-Lepob; ob/ob) or the leptin receptor (C57BL/6J-m+/+Lepdb; db/db) were purchased from Charles Jackson Laboratories, Maine. Mice were obtained at ages 6-8 weeks old and average weight 15 g. Animals were fed standard rodent chow and tap water ad libitum. Procedures and animal care were approved by the Institutional Animal Care and Use Committee. Mice were subjected to femoral artery wire injury or sham injury described below 24 hr prior to starting pharmacological treatments. Sirolimus was administered by intraperitoneal injection once per day for 14 days as a suspension in 0.2% sodium carboxymethyl cellulose and 0.25% polysorbate-80; duplicate experiments were accomplished with 0.5% DMSO. Leptin or LY294002 was administered by intraperitoneal injection once per day for 14 days as a suspension in PBS. Plasma leptin levels were measured at baseline, 3, 6, and 10 hr after leptin injection using an ELISA assay (R&D). Leptin plus the vehicle used for both sirolimus and LY294002 was used as the control group for the treatment groups with sirolimus and LY294002. After the 2-week treatment, animals were processed for femoral artery morphometry.
Femoral Artery Injury Model. Endoluminal injury of bilateral femoral arteries was performed according to the method of Roque et al. with minor modification 27. […] Briefly, to denude and dilate femoral arteries, a 0.014″ angioplasty guidewire (Guidant) was passed endoluminally 3 times to the level of the aortic bifurcation. A sham protocol was performed where the arteries underwent dissection, clamping, and ligature without passage of the guidewire.
Computer-aided quantitative morphometry to measure luminal, medial, intimal, and vessel areas were performed as previously described 27 with minor modification. Mice were euthanized via CO2 asphyxiation prior to en bloc excision of hind limbs. Briefly, multiple segments of the common femoral artery at the level of injury were fixed in 10% Zinc Formalin, embedded in paraffin, sectioned at […] thickness, and subjected to Elastic-Van Gieson staining at a Columbia University Core Histology facility. In many cases, arteries underwent immunohistochemical staining for smooth muscle a-actin to highlight the media and neointima. Photomicrographs were captured on Adobe Photoshop 7.0 and transferred to Scion Image software for quantitative analysis. Specimens were analyzed by two independent operators blinded to the treatment groups. Microsoft Excel software was used to calculate the RNI values from I/M ratios in the absence and presence of pharmacological inhibitors, as detailed in the text.
Surgical Procedures: The mouse femoral artery wire injury model of was used with minor modifications (Roque M, et al., Arterioscler Thromb Vasc Biol, 2000, 20(2):335-42). Briefly, forty-two male mice were studied. Endoluminal injury to the common femoral artery was produced by either 3 passages of a 0.014″ diameter angioplasty guidewire (Guidant, Santa Clara, Calif.). […] While being viewed under a surgical microscope, a groin incision was made and the femoral artery was isolated and temporarily clamped distal to the inguinal ligament. An arteriotomy was performed and the guidewire was passed 3 times to the level of the aortic bifurcation. The artery was then ligated proximal to the arteriotomy. A sham protocol was carried out on the contralateral side where the arteries underwent dissection, temporary clamping, and ligature, without passage of the wire. The formation of the neointima was confirmed in this model as being comprised mainly of VSMCs through immunohistochemical staining of representative sections for α-smooth muscle actin via a commercial kit (Sigma).
For all treatment protocols, rapamycin was administered by intraperitoneal injection once per day, for 14 days, as a suspension in 0.2% sodium carboxymethyl cellulose and 0.25% polysorbate-80. […]

[3] = system: wire-injured femoral artery of hyperglycemic (STZ) mice; assay: Femoral artery wire injury in streptozotocin-induced hyperglycemic mice; assay type: in vivo, mouse; conditions: rapamycin 4 mg/kg/d i.p. 14 days
[4] = system: VSMC migration from murine aortic explants; conditions: sirolimus i.p. 1, 4 and 9 mg/kg/day (4 and 9 mg/kg/d); cited from earlier work

CO[C@H]1C[C@@H]2CC[C@@H](C)[C@@](O)(O2)C(=O)C(=O)N2CCCC[C@H]2C(=O)O[C@H]([C@H](C)C[C@@H]2CC[C@@H](O)[C@H](OC)C2)CC(=O)[C@H](C)/C=C(\C)[C@@H](O)[C@@H](OC)C(=O)[C@H](C)C[C@H](C)/C=C/C=C/C=C/1C [sirolimus, rapamycin]
insulin-stimulated VSMC proliferation ([1]; rapamycin 1, 10, 100 nmol/L, 72 hours): blocked the insulin-stimulated proliferation in a dose dependent manner | leptin-induced VSMC proliferation ([1]; leptin 100 ng/ml, rapamycin even at low dosage 10 nmol/L): completely inhibited | insulin-stimulated VSMC proliferation ([1]; rapamycin 10 nmol/L): significant (p<0.01) decrease | VSMC proliferation induced by leptin and insulin ([1]; rapamycin even at 1 μM, leptin 100 ng/ml + insulin 10 nmol/L): cannot inhibit | VSMC migration induced by PDGF (murine VSMC migration; 48 h pre-treatment with rapamycin 100 nmol/L, PDGF 10 ng/mL): inhibited | VSMC migration induced by insulin (murine VSMC migration; 48 h pre-treatment with rapamycin 100 nmol/L, insulin 200 nmol/L): inhibited | insulin-induced VSMC migration (murine VSMC migration; acute rapamycin treatment 100 nmol/L, insulin 200 nmol/L): inhibited | medial areas ([2]; Example 2, rapamycin 1, 4 or 9 mg/kg/d i.p. 14 days): No significant differences | neointimal formation ([2]; Example 2, rapamycin 4 and 9 mg/kg/d i.p. 14 days, p<0.01): significant decrease | inhibition of neointimal formation in the presence of exogenous leptin ([2]; sirolimus 1 mg/kg/d, leptin 0.4 mg/kg, compared with no leptin): significantly less effective | inhibition of leptin-induced neointimal formation ([2]; sirolimus/rapamycin 4 mg/kg/d): partially inhibited | inhibition of leptin-induced neointimal formation ([2]; sirolimus/rapamycin 4 mg/kg/d, listed as rapamycin): only partially inhibit | inhibition of leptin-induced neointimal formation ([2]; sirolimus/rapamycin 9 mg/kg/d): resulted in inhibition; also recorded: did effectively inhibit; also recorded: complete inhibition | inhibition of leptin-induced neointimal formation ([2]; sirolimus/rapamycin 9 mg/kg/d, listed as rapamycin): completely inhibit | neointimal formation ([3]; hyperglycemic mice (STZ+RPM)): effective in reducing neointimal formation | neointimal formation ([3]; hyperglycemic mice receiving insulin (STZ+INS+RPM)): effective in reducing neointimal formation | VSMC migration from murine aortic explants [4]: inhibit
